# Reference: the supplement of paper PMC7125110
# ± gives the standard error. Many of these values have a large error.
# B1: glmS ribozyme (parent)
# chain: AUAAAAGCGCCAGAACUACAGAAAUGUAGUUGACGAGGAGGAGGUUUAUCGAAUUUUCGGCGGAUGCCUCCAAA
# Variants of: B1
# Assay: self-cleavage kobs at 2500 uM GlcN6P; higher = faster cleavage; RNA array
# Settings: with glucosamine-6-phosphate
# Summary of the method: (§1)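 Tiles bearing barcoded ribozyme variants, transcribed in situ by E. coli RNA polymerase on sequenced MiSeq chips, were imaged over ~14 h at 37 °C using a hybridised Cy3 probe. Glucosamine-6-phosphate was supplied at 40 μM to 10 mM in HEPES/KCl/Mg(OAc)2 buffer. kobs came from one- or two-exponential decay fits to normalised per-tile medians, and weighted Michaelis–Menten fits then provided kcat and KM.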
row,Variant,self-cleavage kobs at 2500 uM GlcN6P
1,U17C A18U C19A A20C G21A A22G U25A G26U U56A C67U,4.73e-05 ± 2.4e-05 s⁻¹
2,C50A C67U C70G,0.00105 ± 0.00059 s⁻¹
3,U47C C67U C71A,6.85e-05 ± 3.5e-05 s⁻¹
4,A52C C67U,1.73e-05 ± 1.7e-05 s⁻¹
5,A15G U31C G44A,2.41e-05 ± 2.2e-05 s⁻¹
6,A15G G40U U65C,3.32e-05 ± 2.1e-05 s⁻¹
7,A48G U65A C68A,4.17e-05 ± 2.4e-05 s⁻¹
8,G51U C61A C68A,3.18e-05 ± 2.3e-05 s⁻¹
9,G29U C67U U69A,5.35e-05 ± 2.8e-05 s⁻¹
10,G35A G60U C67G C68G,4.81e-05 ± 3e-05 s⁻¹
11,A28C,0.0237 ± 0.013 s⁻¹
12,A42U C68G,2.49e-05 ± 1.7e-05 s⁻¹
13,G38U C50A U57C C61U C68U,4.46e-05 ± 2.3e-05 s⁻¹
14,A18C,0.0756 ± 0.051 s⁻¹
15,A36U C70A,0.000253 ± 0.00014 s⁻¹
16,A15U C16G G32C,4.12e-05 ± 2.4e-05 s⁻¹
17,U17G,0.0095 ± 0.005 s⁻¹
18,A48U A64U C70U,3.63e-05 ± 2.1e-05 s⁻¹
19,G60A C68A,0.000533 ± 0.00036 s⁻¹
20,U30C U55G U56C,1.66e-05 ± 1.3e-05 s⁻¹
21,U45C A48U C71U,4.46e-05 ± 3.3e-05 s⁻¹
22,U30A G59A,1.72e-05 ± 1.3e-05 s⁻¹
23,G29U U30A U46G,3.53e-05 ± 2.2e-05 s⁻¹
24,A48C C50U U55A C67G C68G,5.61e-05 ± 2.8e-05 s⁻¹

row,Variant,self-cleavage kobs at 2500 uM GlcN6P
1,G32C C58U,3.4e-05 ± 2e-05 s⁻¹
2,A33U U47A G66A,2.64e-05 ± 1.7e-05 s⁻¹
3,A33C U47G,1.45e-05 ± 1.3e-05 s⁻¹
4,A42U U56C C71U,2.88e-05 ± 2.4e-05 s⁻¹
5,U31C G37A C50G U69C,2.1e-05 ± 1.9e-05 s⁻¹
6,U46A U65G G66U C71G,3.91e-05 ± 2.4e-05 s⁻¹
7,A33U C70G,1.81e-05 ± 1.6e-05 s⁻¹
8,G41U U56C,1.87e-05 ± 1.1e-05 s⁻¹
9,C16U A39G G66A,0.0191 ± 0.011 s⁻¹
10,U30C G41A,1.39e-05 ± 1.3e-05 s⁻¹
11,A39C A42C U54A,3.63e-05 ± 2.5e-05 s⁻¹
12,A15U C50A C68U,3.48e-05 ± 2.4e-05 s⁻¹
13,A53C G66U C70G,0.000126 ± 7e-05 s⁻¹
14,A52G A53U U56C,3.28e-05 ± 1.8e-05 s⁻¹
15,A52G C58G,1.9e-05 ± 1.6e-05 s⁻¹
16,G32C G37A U55A C67A C68A,6.66e-05 ± 3.3e-05 s⁻¹
17,C50U U54A,1.87e-05 ± 1.5e-05 s⁻¹
18,G59U C70A,2.37e-05 ± 1.6e-05 s⁻¹
19,G43U U54C,1.62e-05 ± 1.5e-05 s⁻¹
20,U46A C58A,2.86e-05 ± 2.8e-05 s⁻¹
21,A33U U47G U55C,1.97e-05 ± 1.1e-05 s⁻¹
22,G59A C67A,2.45e-05 ± 1.4e-05 s⁻¹
23,A33C U45G U46C,3.62e-05 ± 2e-05 s⁻¹
24,U30C U46G C70U,2.85e-05 ± 1.5e-05 s⁻¹

row,Variant,self-cleavage kobs at 2500 uM GlcN6P
1,A15U G40U G66C,2.83e-05 ± 1.7e-05 s⁻¹
2,A15G G37C C68A C70U,3.58e-05 ± 3.3e-05 s⁻¹
3,A15U C50U,2.56e-05 ± 1.6e-05 s⁻¹
4,C16A U31C G60A C68G,4.03e-05 ± 3.1e-05 s⁻¹
5,U31G U55C C58G,2.73e-05 ± 1.7e-05 s⁻¹
6,A64G C70G,4.22e-05 ± 3.2e-05 s⁻¹
7,G32A C68A,2.04e-05 ± 1.8e-05 s⁻¹
8,U49A C58A G62U,5.2e-05 ± 4.7e-05 s⁻¹
9,A15G G59C C68G,4.66e-05 ± 2.4e-05 s⁻¹
10,G59A G62A C70G,2.14e-05 ± 2e-05 s⁻¹
11,G29C G66C,3.71e-05 ± 1.9e-05 s⁻¹
12,G29A A52U U55C,2.42e-05 ± 2.1e-05 s⁻¹
13,C16G C68A,2.5e-05 ± 1.5e-05 s⁻¹
14,A15U A33C A42G,4.74e-05 ± 3.6e-05 s⁻¹
15,U54C U56G,0.00392 ± 0.0029 s⁻¹
16,A36C A52U U56G U65A U69A,2.23e-05 ± 1.9e-05 s⁻¹
17,U31C C50A G59A C70G,4.7e-05 ± 2.8e-05 s⁻¹
18,U30C A52G U55A,4.1e-05 ± 3.6e-05 s⁻¹
19,U45A U65A,0.026 ± 0.019 s⁻¹
20,C61U C67G C68G,0.000152 ± 8.9e-05 s⁻¹
21,C61A U65G C67U,3.59e-05 ± 2.1e-05 s⁻¹
22,U47A C58U,2.83e-05 ± 1.7e-05 s⁻¹

# Random excerpt: seven entries already listed.
row,Variant,self-cleavage kobs at 2500 uM GlcN6P
10,G59A G62A C70G,2.14e-05 ± 2e-05 s⁻¹
21,C61A U65G C67U,3.59e-05 ± 2.1e-05 s⁻¹
13,A53C G66U C70G,0.000126 ± 7e-05 s⁻¹
14,A15U A33C A42G,4.74e-05 ± 3.6e-05 s⁻¹
2,A33U U47A G66A,2.64e-05 ± 1.7e-05 s⁻¹
13,C16G C68A,2.5e-05 ± 1.5e-05 s⁻¹
19,G43U U54C,1.62e-05 ± 1.5e-05 s⁻¹

# Variants of: B1
# Assay: self-cleavage kobs at 10000 uM GlcN6P; higher = faster cleavage; RNA array
# Settings: with glucosamine-6-phosphate
# Summary of the method: as §1
row,Variant,self-cleavage kobs at 10000 uM GlcN6P
1,C16G G44A U54A,3.01e-05 ± 2e-05 s⁻¹
2,G35A C61G U65G C67A U69G,2.95e-05 ± 1.9e-05 s⁻¹
3,U46G G51U U57A C70G,2.5e-05 ± 1.9e-05 s⁻¹
4,C50G U65A,2.04e-05 ± 1.6e-05 s⁻¹
5,C16U A53G U56G,0.0403 ± 0.023 s⁻¹
6,U45A C50A,1.45e-05 ± 9.7e-06 s⁻¹
7,A14U A39C C67G,2.76e-05 ± 1.6e-05 s⁻¹
8,C58U U65A C68G,1.77e-05 ± 1.6e-05 s⁻¹
9,C11G G29A U49G U69G,3.55e-05 ± 2e-05 s⁻¹
10,C58A G59A,1.06e-05 ± 9.3e-06 s⁻¹
11,C50U U56A,1.91e-05 ± 1.3e-05 s⁻¹
12,G32C C58U,3.01e-05 ± 1.9e-05 s⁻¹
13,G9A C58G C67G,4.53e-05 ± 3.2e-05 s⁻¹
14,U46C U49G C67G,3.38e-05 ± 2e-05 s⁻¹
15,G32A A52U,1.82e-05 ± 1.1e-05 s⁻¹
16,U46G C67U C68G,3.91e-05 ± 2.2e-05 s⁻¹
17,C50A C67A C70U,2.56e-05 ± 1.8e-05 s⁻¹
18,A33C A42G U65A,3.04e-05 ± 2.4e-05 s⁻¹
19,A33U C70G,1.35e-05 ± 1.1e-05 s⁻¹
20,U47G C61U C70U,2.72e-05 ± 2.1e-05 s⁻¹

row,Variant,self-cleavage kobs at 10000 uM GlcN6P
1,G44A C70U,1.14e-05 ± 1.1e-05 s⁻¹
2,A52U U69G,1.47e-05 ± 8.4e-06 s⁻¹
3,G32C A33U A48U U69G,3.22e-05 ± 2.3e-05 s⁻¹
4,C61G C71G,1.8e-05 ± 1.4e-05 s⁻¹
5,A33C U55G C58U C68A,2.11e-05 ± 2.1e-05 s⁻¹
6,C11U A15G C50G,3.01e-05 ± 1.7e-05 s⁻¹
7,C10A C50G U65G,2.4e-05 ± 1.8e-05 s⁻¹
8,A52G C58G,1.52e-05 ± 1.4e-05 s⁻¹
9,G9A U55G,1.33e-05 ± 9.6e-06 s⁻¹
10,C11A C58A,1.71e-05 ± 1.2e-05 s⁻¹
11,U46G C50U,2e-05 ± 1.3e-05 s⁻¹
12,U46A C58A,2.36e-05 ± 1.6e-05 s⁻¹
13,C67U C68G,1.67e-05 ± 1.1e-05 s⁻¹
14,G59A C67A,1.13e-05 ± 8.7e-06 s⁻¹
15,C16G G29C G44C,3.12e-05 ± 1.6e-05 s⁻¹
16,U31A C68A,2.09e-05 ± 1.3e-05 s⁻¹
17,A15U G35U C67G,2.38e-05 ± 2.2e-05 s⁻¹
18,A15U C50U,2.1e-05 ± 1.1e-05 s⁻¹
19,A12U G44C C68U,1.57e-05 ± 1.3e-05 s⁻¹
20,C10A G29C U55A C70G,2e-05 ± 1.9e-05 s⁻¹

# Some of the entries so far, bar-delimited:
row | Variant | self-cleavage kobs at 10000 uM GlcN6P
6 | C11U A15G C50G | 3.01e-05 ± 1.7e-05 s⁻¹
9 | G9A U55G | 1.33e-05 ± 9.6e-06 s⁻¹
20 | C10A G29C U55A C70G | 2e-05 ± 1.9e-05 s⁻¹

# Additional records

row,Variant,self-cleavage kobs at 10000 uM GlcN6P
1,G38U U65G C67U C70U,2.3e-05 ± 1.8e-05 s⁻¹
2,C11A G37A G59A,2.43e-05 ± 2e-05 s⁻¹
3,A42C C68U,1.07e-05 ± 7.2e-06 s⁻¹
4,U30C C67A C70G,2.58e-05 ± 2.2e-05 s⁻¹
5,U30C U65A,1.99e-05 ± 1.2e-05 s⁻¹
6,C10U A15G G32A G63U U69G,2.42e-05 ± 2e-05 s⁻¹
7,A39G A42G,0.0448 ± 0.027 s⁻¹
8,A14C C50G A64G,2.13e-05 ± 1.8e-05 s⁻¹
9,A14C G29U C50G,2.64e-05 ± 2.3e-05 s⁻¹
10,G59U C67A,1.55e-05 ± 1.3e-05 s⁻¹
11,G35A C68G,6.98e-05 ± 5.6e-05 s⁻¹
12,U31C G59A,1.39e-05 ± 1e-05 s⁻¹
13,C10A A12G C16U C68U U69G,3.44e-05 ± 2.5e-05 s⁻¹
14,C50G C58G,0.000164 ± 9.9e-05 s⁻¹
15,C58U C70G,1.22e-05 ± 9.4e-06 s⁻¹
16,A6G U46C,1.78e-05 ± 1.8e-05 s⁻¹
17,C61U C67G C68G,2.34e-05 ± 1.5e-05 s⁻¹
18,G37A G41A U46G,2.69e-05 ± 2.3e-05 s⁻¹
